In all, about 320,000 compounds went through this assay and about 22,000 (6.9%) were called active. Inconclusive means that the source gave no clear call. Such entries were picked first, then a sample of the others. The call rests on the fitted dose curve; in most records, active means well fitted inhibition curve with a large enough effect; inconclusive means small, poorly fitted or top-dose-only effect, or another doubt; inactive means no such curve, though single readings can be large or run the other way. Potencies beside an inconclusive call are fits to weak or partial responses and may not hold up.
Test: Primary qHTS for delayed death inhibitors of the malarial parasite plastid, 96 hour incubation
Conditions: P. falciparum luciferase reporter growth; series mostly up to 28.7 µM
Outline: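 Two-generation exposure (96 h) targets delayed-death phenotype. Reporter parasites carrying integrated firefly luciferase, in red cells at 2% hematocrit and 0.05% parasitemia final, kept at 37 C, 5% CO2; luminescence loss indicates inhibition.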
Potency means the concentration at half of the fitted maximal effect.

Which Potency does the source give for O=C(O)/C(=C\c1ccc(Br)cc1)c1ccc(S(=O)(=O)N2CCCCC2)s1 here?
The Potency was “inactive”.

For CCc1c(C(C)=O)oc2ccc3c(C)cc(=O)oc3c12, which Potency is on record?
Its Potency is inconclusive: 0.465 µM [inhibitor, partial curve, poor fit].

With Nc1ccc(-c2c3ccccc3nc3ccccc23)cc1 as the molecule, how does the Potency read?
The Potency was “inactive”.

With O=C(Cn1c(/C=C/c2ccccc2)nc2ccccc21)Nc1ccc(F)cc1 as the molecule, how does the Potency read?
Its Potency is inconclusive: 10.4 µM [inhibitor, single point].

With O=C(O)[C@@H]1CCCN1C(=O)c1ccccc1N1C(=O)[C@@H]2Cc3c([nH]c4ccccc34)C(c3cccc(Cl)c3)N2C1=O (stereo partly drawn) as the molecule, how does the Potency read?
The Potency was active: 10.4 µM.

Which Potency does the source give for Cc1nc(SCC(=O)N(C)C2(C#N)CCCCC2)c2ccccc2n1 here?
Its Potency is inconclusive: 18.5 µM [inhibitor, single point].

For CCN(c1ccccc1)S(=O)(=O)c1ccc(Cl)c(C(=O)NCCc2ccc(OC)cc2)c1, which Potency is on record?
The Potency was inconclusive: 18.5 µM [inhibitor, single point].

With Cn1cc(CCC(=O)N2CCCC(CCC(=O)NCc3ccccc3F)C2)cn1 (stereo not drawn) as the molecule, how does the Potency read?
The Potency was inconclusive: 1.17 µM [inhibitor, partial curve].

With COc1cc(C(=O)Nc2ccc(Cl)c(C(F)(F)F)c2)cc(OC)c1OC as the molecule, how does the Potency read?
Its Potency is “inactive”.

Which Potency does the source give for Fc1ccccc1NC(=S)Nc1ccc(Br)cc1 here?
Its Potency is “inactive”.

With Cc1ccc(CSCC(=O)N(C)CC(=O)Nc2ccc(Cl)c(Cl)c2)cc1 as the molecule, how does the Potency read?
The Potency was inconclusive: 13.1 µM [inhibitor, single point].

With CCOc1ccccc1NC(=O)CCNC(=O)Cn1ccc2ccccc2c1=O as the molecule, how does the Potency read?
Its Potency is “inactive”.

For Cc1cccc(Cl)c1NC(=S)NCCc1ccccn1, which Potency is on record?
Its Potency is “inactive”.

Which Potency does the source give for Cc1cc(Cl)ccc1NC(=S)NCC(O)c1ccccc1 (stereo not drawn) here?
Its Potency is inconclusive: 10.4 µM [inhibitor, single point].

For CCOC(=O)C1(CCOc2ccccc2)CCN(Cc2cnc(C)[nH]2)CC1, which Potency is on record?
The Potency was inconclusive: 18.5 µM [inhibitor, single point].

Which Potency does the source give for Nc1nc(SCC(=O)c2ccc(Br)s2)n[nH]1 here?
Its Potency is “inactive”.

Which Potency does the source give for O=[N+]([O-])C1=CC=C2C(=NC3(CCCCC3)N2O)C1=NCCO here?
The Potency was “inactive”.

Which Potency does the source give for CCOC(=O)C/C(C)=N\Nc1nc(-c2ccccc2)cs1 here?
Its Potency is “inactive”.

With CCCn1nc2ccccc2c1P(=O)(N1CCOCC1)N1CCOCC1 as the molecule, how does the Potency read?
The Potency was inconclusive: 18.5 µM [inhibitor, single point].

For Cc1cccc(C(=O)N/N=C2/SCC(=O)N2Cc2ccccc2)c1, which Potency is on record?
The Potency was inconclusive: 18.5 µM [inhibitor, single point].

For CCOC(=O)c1cc(-c2ccccc2)sc1NC(=O)CCN1C(=O)c2ccccc2C1=O, which Potency is on record?
Its Potency is inconclusive: 18.5 µM [inhibitor, single point].

Which Potency does the source give for CCn1c(=O)cc(OCC(=O)N2CCC3(CC2)OCCO3)c2ccccc21 here?
Its Potency is inconclusive: 18.5 µM [inhibitor, single point].

For O=C(Cc1ccccc1)Nc1ccnn1C1CCN(Cc2ccc(CO)o2)CC1, which Potency is on record?
Its Potency is inconclusive: 11.7 µM [inhibitor, single point].

Which Potency does the source give for COc1ccccc1NC(=O)CSc1n[nH]c(-c2ccccn2)n1 here?
Its Potency is inconclusive: 10.4 µM [inhibitor, single point].

For O=C(Nc1ccc(S(=O)(=O)N2CCOCC2)cc1)c1ccc(Cl)cc1, which Potency is on record?
Its Potency is inconclusive: 13.1 µM [inhibitor, single point].

With C/C(=N\NC(=O)Cc1c(Cl)cccc1Cl)c1cccnc1 as the molecule, how does the Potency read?
Its Potency is inconclusive: 18.5 µM [inhibitor, single point].

With N#Cc1ccccc1COC(=O)c1ccc2c(c1)OCCO2 as the molecule, how does the Potency read?
The Potency was “inactive”.

With O=C1NC(=O)C(CC(=O)N(c2ccccc2)C2(C(=O)NC3CCCC3)CCCCC2)N1 (stereo not drawn) as the molecule, how does the Potency read?
Its Potency is inconclusive: 1.65 µM [inhibitor, partial curve, poor fit].

With COc1cccc(OCc2nc(-c3cccc([N+](=O)[O-])c3)no2)c1 as the molecule, how does the Potency read?
The Potency was “inactive”.

Which Potency does the source give for COc1ccc(Nc2cc(C)nc(N3CCOCC3)n2)cc1 here?
Its Potency is “inactive”.

Which Potency does the source give for Cc1cc(OCc2ccc([N+](=O)[O-])cc2)c2c3c(c(=O)oc2c1)CCCC3 here?
Its Potency is inconclusive: 16.5 µM [inhibitor, partial curve, poor fit].

With CC(=O)c1ccc(NC(=O)COc2ccc3c(c2)OCO3)cc1 as the molecule, how does the Potency read?
Its Potency is inconclusive: 0.522 µM [inhibitor, partial curve].

For c1ccc2oc(-c3ccc4nc[nH]c4c3)nc2c1, which Potency is on record?
Its Potency is “inactive”.

Which Potency does the source give for CCOC(=O)c1sc(=NC(=O)c2cccc(Br)c2)n(C)c1C here?
Its Potency is “inactive”.

For O=C(Cn1nnc(-c2cccs2)n1)N1CCOCC1, which Potency is on record?
The Potency was active: 9.28 µM.

With Cc1cc(C(=O)N(C)Cc2ccc(Br)cc2)no1 as the molecule, how does the Potency read?
The Potency was inconclusive: 10.4 µM [inhibitor, partial curve, poor fit].

Which Potency does the source give for Cn1c(=O)n(CC(=O)O)c(=O)c2c1nc1n2CCCN1Cc1ccccc1 here?
Its Potency is inconclusive: 1.17 µM [inhibitor, partial curve, poor fit].

For CCn1nc(C)c(/C=C/C(=O)Nc2ccc(C)cc2C)c1C, which Potency is on record?
The Potency was inconclusive: 18.5 µM [inhibitor, single point].

With Cc1ccc[n+](CC(=O)Nc2ccc([N+](=O)[O-])cc2Cl)c1 as the molecule, how does the Potency read?
The Potency was inconclusive: 18.5 µM [inhibitor, single point].

Which Potency does the source give for N=c1n(CC(=O)c2cccc([N+](=O)[O-])c2)c2ccccc2n1Cc1ccccc1 here?
Its Potency is “inactive”.

Which Potency does the source give for O=C1CC(/C=C/c2ccc([N+](=O)[O-])cc2)=Nc2ccccc2N1 here?
Its Potency is inconclusive: 18.5 µM [inhibitor, single point].

With O=C1[C@@H]2Cc3c([nH]c4ccccc34)C(c3ccccc3)N2C(=O)CN1CCO (stereo partly drawn) as the molecule, how does the Potency read?
Its Potency is “inactive”.

With CN(c1ccc(OCC(=O)OCC(=O)Nc2ccc(F)cc2)cc1)S(=O)(=O)c1ccc(Cl)cc1 as the molecule, how does the Potency read?
The Potency was inconclusive: 13.1 µM [inhibitor, single point].

Which Potency does the source give for CCOC(=O)c1cc2cc(OCc3ccccc3)ccc2nc1C here?
The Potency was inconclusive: 2.62 µM [inhibitor, full curve].

For CCOC(=O)c1c(C)c(C(=O)NCCN2CCOCC2)c(C)n1C, which Potency is on record?
The Potency was inconclusive: 18.5 µM [inhibitor, single point].

With CCc1ccc(N2CC(C(=O)OCC(=O)c3c(N)n(CC(C)C)c(=O)n(C)c3=O)CC2=O)cc1 (stereo not drawn) as the molecule, how does the Potency read?
The Potency was inconclusive: 4.15 µM [inhibitor, single point].

Which Potency does the source give for CCCN1CCC(NC(=O)C2CCN(C(C)=O)CC2)CC1 here?
Its Potency is inconclusive: 10.4 µM [inhibitor, single point].

With Cc1ccc(NC2Nc3cc(C)nn3S2)c(C)c1 (stereo not drawn) as the molecule, how does the Potency read?
Its Potency is “inactive”.

For Cc1ccccc1OCCOCCN1CCCCCC1, which Potency is on record?
Its Potency is inconclusive: 16.5 µM [inhibitor, single point].

Which Potency does the source give for CC(Oc1ccc(C#N)cc1)C(=O)Nc1ccc(-n2cnnn2)cc1 (stereo not drawn) here?
The Potency was active: 3.29 µM.

With Oc1cc2c(cc1C(c1ccc(Cl)c(Cl)c1)N1CCCC1)OCO2 (stereo not drawn) as the molecule, how does the Potency read?
Its Potency is inconclusive: 10.4 µM [inhibitor, single point].

With O=C(CNCc1ccco1)Nc1ccc(Oc2ccccc2)cc1 as the molecule, how does the Potency read?
The Potency was inconclusive: 9.28 µM [inhibitor, partial curve, poor fit].

Which Potency does the source give for O=C(Nc1ccccc1)c1cc([N+](=O)[O-])ccc1N1CCNCC1 here?
The Potency was inconclusive: 10.4 µM [inhibitor, single point].

With O=C(CSc1nnc(NC2CCCCC2)s1)NC1CCS(=O)(=O)C1 (stereo not drawn) as the molecule, how does the Potency read?
The Potency was inconclusive: 18.5 µM [inhibitor, single point].

With COc1ccc(NS(=O)(=O)c2cccc3cccnc23)cc1 as the molecule, how does the Potency read?
Its Potency is inconclusive: 8.28 µM [inhibitor, partial curve, poor fit].

For Fc1cc(F)cc(NC(=S)Nc2ccccc2N2CCOCC2)c1, which Potency is on record?
The Potency was “inactive”.

For O=C(NNC(=O)c1ccc(-n2cncn2)c([N+](=O)[O-])c1)c1ccc(Cl)cc1, which Potency is on record?
Its Potency is inconclusive: 8.28 µM [inhibitor, partial curve].

Which Potency does the source give for Cc1ccccc1-n1cnc2c(sc3nc(N4CCOCC4)c4c(c32)CCCC4)c1=O here?
Its Potency is inconclusive: 7.38 µM [inhibitor, partial curve, poor fit].

Which Potency does the source give for CN(C)NC(=O)C(NC(=O)c1ccccc1)C12CC3CC(CC(C3)C1)C2 (stereo not drawn) here?
Its Potency is inconclusive: 14.7 µM [inhibitor, partial curve, poor fit].

For S=C1CSc2ccccc2N1, which Potency is on record?
Its Potency is inconclusive: 10.4 µM [inhibitor, single point].

For Cc1noc(-c2ccccc2)c1NC(=O)Nc1ccccc1, which Potency is on record?
The Potency was inconclusive: 18.5 µM [inhibitor, single point].

For Cc1csc(-c2cnn(-c3ccccc3)c2NC(=O)c2cccc(F)c2)n1, which Potency is on record?
The Potency was inconclusive: 13.1 µM [inhibitor, single point].

For O=C(CN(Cc1ccc(Cl)cc1)C(=O)c1csnn1)NCc1ccccc1, which Potency is on record?
Its Potency is “inactive”.

For OC(CNCC1CCCO1)Cn1c2ccc(Cl)cc2c2cc(Cl)ccc21 (stereo not drawn), which Potency is on record?
The Potency was “inactive”.

With CCC(C)Nc1ccc(NC(C)CC)cc1 (stereo not drawn) as the molecule, how does the Potency read?
The Potency was active: 1.17 µM.

Which Potency does the source give for O=C(CCS(=O)(=O)c1ccc(F)cc1)Nc1nc(-c2ccccn2)cs1 here?
The Potency was inconclusive: 7.38 µM [inhibitor, partial curve].

Which Potency does the source give for CCN(CC)c1ccc(C=O)c(OC)c1 here?
Its Potency is “inactive”.

Which Potency does the source give for CCOC(=O)c1cc(C#N)c(Nc2ccc(C)cc2)nc1C(F)(F)F here?
The Potency was “inactive”.

With COc1ccc(NC(=O)c2cc(-c3ccc4c(c3)OCO4)on2)cc1OC as the molecule, how does the Potency read?
Its Potency is inconclusive: 9.28 µM [inhibitor, partial curve, poor fit].

With O=C(CCSc1ccccc1)NC1CCCCCC1 as the molecule, how does the Potency read?
The Potency was “inactive”.

With CCn1c(CNC(=O)c2ccccc2Br)nnc1SCC(=O)NC1=NCCS1 as the molecule, how does the Potency read?
Its Potency is “inactive”.

With CC(O)(C#CCN1CCCCCC1)c1ccccc1 (stereo not drawn) as the molecule, how does the Potency read?
Its Potency is inconclusive: 9.28 µM [inhibitor, partial curve].

Which Potency does the source give for CC(NC(=O)COC(=O)CC(c1ccccc1)c1ccccc1)c1ccccc1 (stereo not drawn) here?
Its Potency is “inactive”.

Reference: PubChem BioAssay AID504834 (National Center for Advancing Translational Sciences (NCATS), 2011)
